Paper doi:10.1101/2025.11.25.690242
No constants are given. Whether binding was seen depends on the method and setting. Binding seen in cells or lysates may run through a third protein.

Sequences of proteins named here, by UniProt entry; tags and fusion partners are left off.
UniProt P97302: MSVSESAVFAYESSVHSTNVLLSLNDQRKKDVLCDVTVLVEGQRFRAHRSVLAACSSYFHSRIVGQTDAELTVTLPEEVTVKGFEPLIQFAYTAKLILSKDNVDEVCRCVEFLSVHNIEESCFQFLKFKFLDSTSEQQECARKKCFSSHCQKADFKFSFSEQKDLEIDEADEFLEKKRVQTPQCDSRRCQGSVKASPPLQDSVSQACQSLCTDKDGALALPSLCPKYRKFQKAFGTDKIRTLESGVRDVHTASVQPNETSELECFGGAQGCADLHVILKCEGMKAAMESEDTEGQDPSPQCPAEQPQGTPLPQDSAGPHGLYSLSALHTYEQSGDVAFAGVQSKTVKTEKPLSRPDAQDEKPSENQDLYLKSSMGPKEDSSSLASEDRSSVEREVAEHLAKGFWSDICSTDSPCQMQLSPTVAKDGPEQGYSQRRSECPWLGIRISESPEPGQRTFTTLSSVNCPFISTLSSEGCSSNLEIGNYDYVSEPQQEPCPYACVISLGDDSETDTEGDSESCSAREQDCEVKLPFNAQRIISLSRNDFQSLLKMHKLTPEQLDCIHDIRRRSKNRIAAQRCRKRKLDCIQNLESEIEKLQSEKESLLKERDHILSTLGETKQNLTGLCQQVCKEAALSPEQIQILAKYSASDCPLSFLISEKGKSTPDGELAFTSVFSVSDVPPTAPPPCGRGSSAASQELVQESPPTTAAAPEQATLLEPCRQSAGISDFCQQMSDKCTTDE

Target: BTB and CNC homology factor 1 (BACH1) (mouse (endogenous in murine thymocytes)) (UniProt P97302)
Assay: co-IP

B1: Special AT-rich sequence-binding protein 1 (SATB1) (protein, UniProt Q60611 1-764)
chain: MDHLNEATQGKEHSEMSNNVSDPKGPPAKIARLEQNGSPLGRGRLGSTGGKMQGVPLKHSGHLMKTNLRKGTMLPVFCVVEHYENAIEYDCKEEHAEFVLVRKDMLFNQLIEMALLSLGYSHSSAAQAKGLIQVGKWNPVPLSYVTDAPDATVADMLQDVYHVVTLKIQLHSCPKLEDLPPEQWSHTTVRNALKDLLKDMNQSSLAKECPLSQSMISSIVNSTYYANVSAAKCQEFGRWYKHFKKTKDMMVEMDSLSELSQQGANHVNFGQQPVPGNTAEQPPSPAQLSHGSQPSVRTPLPNLHPGLVSTPISPQLVNQQLVMAQLLNQQYAVNRLLAQQSLNQQYLNHPPPVSRSMNKPLEQQVSTNTEVSSEIYQWVRDELKRAGISQAVFARVAFNRTQGLLSEILRKEEDPKTASQSLLVNLRAMQNFLQLPEAERDRIYQDERERSLNAASAMGPAPLLSTPPSRPPQVKTATLATERNGKPENNTMNINASIYDEIQQEMKRAKVSQALFAKVAATKSQGWLCELLRWKEDPSPENRTLWENLSMIRRFLSLPQPERDAIYEQESNAVHHHGDRPPHIIHVPAEQIQQQQQQQQQQQQQQQPPPPPPQPQPQPQAGPRLPPRQPTVASSAESDEENRQKTRPRTKISVEALGILQSFIQDVGLYPDEEAIQTLSAQLDLPKYTIIKFFQNQRYYLKHHGKLKDNSGLEVDVAEYKDEELLKDLEESVQDKNANTLFSVKLEEELSVEGSTDVNADLKD
- binding: no binding
